For assay [1], the target named is SP-R210S, short isoform of the surfactant protein A receptor SP-R210 (Myo18A) (mouse (endogenous in Raw264.7)). The experiment in a line: co-IP; precipitation with affinity purified polyclonal anti-SP-R210 (recognises SP-R210L and SP-R210S) from 5 mg/mL extracts of control and SP-R210L(DN) Raw264.7 cells; lysis buffer 50 mM Tris-HCl pH 8.0, 150 mM NaCl, 1% NP-40; protein G beads, 4°C; Western blot. Background: In western blotting, separated proteins are transferred to a membrane and probed.

Assay [2] has the same target. The experiment in a line: co-IP; precipitation with monoclonal anti-SP-R210 from 2.5 mg/mL extracts of control and SP-R210L(DN) Raw264.7 cells, before and 10, 30, 60 and 120 min after 100 ng/mL LPS; re-probed with polyclonal SP-R210 antibodies; control: monoclonal IgG1 against an unrelated viral antigen.

Drawing on publication PMC4428707, this text covers binding for two molecules.

Results are given in words; binding and its absence hold for the method and conditions named. In cells and extracts the contact can be indirect. A result given as binding can be weak or reduced; the word gives no strength.

B1: scavenger receptor class A (SR-A) (receptor, UniProt P30204 1-458)
chain: MTKEMTENQRLCPHEQEDADCSSESVKFDARSMTASLPHSTKNGPSLQEKLKSFKAALIALYLLVFAVLIPVVGIVTAQLLNWEMKNCLVCSLNTSDTSQGPMEKENTSKVEMRFTIIMEHMKDMEERIESISNSKADLIDTERFQNFSMATDQRLNDILLQLNSLISSVQEHGNSLDAISKSLQSLNMTLLDVQLHTETLNVRVRESTAKQQEDISKLEERVYKVSAEVQSVKEEQAHVEQEVKQEVRVLNNITNDLRLKDWEHSQTLKNITFIQGPPGPQGEKGDRGLTGQTGPPGAPGIRGIPGVKGDRGQIGFPGGRGNPGAPGKPGRSGSPGPKGQKGEKGSVGGSTPLKTVRLVGGSGAHEGRVEIFHQGQWGTICDDRWDIRAGQVVCRSLGYQEVLAVHKRAHFGQGTGPIWLNEVMCFGRESSIENCKINQWGVLSCSHSEDAGVTCTS
Take B1: in assay [1], the binding entry is “binds”.

B2: CD14 (receptor, UniProt P10810 16-336)
chain: SPAPPEPCELDEESCSCNFSDPKPDWSSAFNCLGAADVELYGGGRSLEYLLKRVDTEADLGQFTDIIKSLSLKRLTVRAARIPSRILFGALRVLGISGLQELTLENLEVTGTAPPPLLEATGPDLNILNLRNVSWATRDAWLAELQQWLKPGLKVLSIAQAHSLNFSCEQVRVFPALSTLDLSDNPELGERGLISALCPLKFPTLQVLALRNAGMETPSGVCSALAAARVQLQGLDLSHNSLRDAAGAPSCDWPSQLNSLNLSFTGLKQVPKGLPAKLSVLDLSYNRLDRNPSPDELPQVGNLSLKGNPFLDSESHSEKFN
Take B2: the binding result in assay [1] and in assay [2] was “binds” in each case.
